Laboratory results from the supplement of paper PMC10849652.
The other results are listed elsewhere or left out.

Sequences of proteins named here, by UniProt entry; tags and fusion partners are left off. A change or cut given only in a name is not applied to a line headed by its entry.
UniProt Q9P0T7: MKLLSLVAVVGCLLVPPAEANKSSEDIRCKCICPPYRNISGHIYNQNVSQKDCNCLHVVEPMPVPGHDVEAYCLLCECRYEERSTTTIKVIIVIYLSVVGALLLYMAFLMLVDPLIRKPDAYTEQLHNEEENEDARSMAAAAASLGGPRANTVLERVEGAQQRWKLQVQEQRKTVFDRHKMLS
UniProt P42167: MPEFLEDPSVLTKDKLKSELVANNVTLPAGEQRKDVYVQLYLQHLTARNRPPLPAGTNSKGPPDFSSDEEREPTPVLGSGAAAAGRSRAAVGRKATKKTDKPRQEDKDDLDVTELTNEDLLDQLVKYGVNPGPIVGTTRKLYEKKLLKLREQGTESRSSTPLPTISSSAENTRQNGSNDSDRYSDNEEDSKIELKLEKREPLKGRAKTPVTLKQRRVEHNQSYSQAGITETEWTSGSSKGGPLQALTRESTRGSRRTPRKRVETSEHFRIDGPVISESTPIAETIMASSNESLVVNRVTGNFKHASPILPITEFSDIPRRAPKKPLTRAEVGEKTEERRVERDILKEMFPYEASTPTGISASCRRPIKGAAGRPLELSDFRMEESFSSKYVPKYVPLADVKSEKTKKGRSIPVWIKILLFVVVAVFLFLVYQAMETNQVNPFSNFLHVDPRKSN
UniProt Q96I45: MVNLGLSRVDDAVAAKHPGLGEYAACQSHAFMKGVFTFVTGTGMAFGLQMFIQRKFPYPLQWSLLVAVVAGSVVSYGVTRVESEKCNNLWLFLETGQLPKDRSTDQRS
UniProt Q8IY95: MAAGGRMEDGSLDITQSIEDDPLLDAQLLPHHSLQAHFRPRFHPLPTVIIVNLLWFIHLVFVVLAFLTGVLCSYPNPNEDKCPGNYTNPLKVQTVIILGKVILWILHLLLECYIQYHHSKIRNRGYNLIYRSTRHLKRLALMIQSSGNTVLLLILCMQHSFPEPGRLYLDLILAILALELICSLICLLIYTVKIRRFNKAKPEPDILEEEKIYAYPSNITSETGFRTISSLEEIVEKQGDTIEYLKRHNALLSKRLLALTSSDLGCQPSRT
UniProt Q6NUQ4: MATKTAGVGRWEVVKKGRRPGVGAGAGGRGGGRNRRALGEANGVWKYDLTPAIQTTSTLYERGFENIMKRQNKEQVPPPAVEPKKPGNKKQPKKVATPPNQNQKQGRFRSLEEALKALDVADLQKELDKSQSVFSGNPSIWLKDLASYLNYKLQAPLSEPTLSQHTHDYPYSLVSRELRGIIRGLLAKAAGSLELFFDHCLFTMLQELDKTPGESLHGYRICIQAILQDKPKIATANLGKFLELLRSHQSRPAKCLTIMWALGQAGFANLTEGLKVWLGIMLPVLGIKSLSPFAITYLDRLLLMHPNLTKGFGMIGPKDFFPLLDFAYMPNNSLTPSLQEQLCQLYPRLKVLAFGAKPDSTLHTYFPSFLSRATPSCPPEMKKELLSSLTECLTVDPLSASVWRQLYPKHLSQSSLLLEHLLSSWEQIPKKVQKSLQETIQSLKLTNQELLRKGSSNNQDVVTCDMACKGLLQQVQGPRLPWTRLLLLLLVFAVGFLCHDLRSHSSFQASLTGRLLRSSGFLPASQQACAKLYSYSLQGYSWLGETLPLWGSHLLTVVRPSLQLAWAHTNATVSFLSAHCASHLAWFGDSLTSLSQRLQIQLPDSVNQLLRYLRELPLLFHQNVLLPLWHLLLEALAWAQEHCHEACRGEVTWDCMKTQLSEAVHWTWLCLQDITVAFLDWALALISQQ
UniProt P28289: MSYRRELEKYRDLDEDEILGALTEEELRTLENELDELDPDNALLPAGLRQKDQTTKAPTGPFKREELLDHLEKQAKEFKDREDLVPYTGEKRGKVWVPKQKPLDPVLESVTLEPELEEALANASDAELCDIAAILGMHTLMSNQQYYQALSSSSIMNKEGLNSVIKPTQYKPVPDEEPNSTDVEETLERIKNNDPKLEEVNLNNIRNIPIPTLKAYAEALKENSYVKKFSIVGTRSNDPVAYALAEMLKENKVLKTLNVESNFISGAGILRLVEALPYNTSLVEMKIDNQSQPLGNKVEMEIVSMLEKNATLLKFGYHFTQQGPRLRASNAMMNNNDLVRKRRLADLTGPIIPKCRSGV
UniProt Q71RG4: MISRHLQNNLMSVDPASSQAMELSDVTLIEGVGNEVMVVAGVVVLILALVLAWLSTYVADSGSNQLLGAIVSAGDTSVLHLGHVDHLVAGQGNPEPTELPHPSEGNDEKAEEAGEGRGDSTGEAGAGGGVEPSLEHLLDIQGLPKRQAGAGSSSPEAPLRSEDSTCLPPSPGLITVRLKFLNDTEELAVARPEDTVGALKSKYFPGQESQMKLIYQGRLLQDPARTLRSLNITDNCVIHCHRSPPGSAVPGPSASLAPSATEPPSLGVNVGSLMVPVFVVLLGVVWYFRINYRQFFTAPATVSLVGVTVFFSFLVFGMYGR
UniProt A0PK00: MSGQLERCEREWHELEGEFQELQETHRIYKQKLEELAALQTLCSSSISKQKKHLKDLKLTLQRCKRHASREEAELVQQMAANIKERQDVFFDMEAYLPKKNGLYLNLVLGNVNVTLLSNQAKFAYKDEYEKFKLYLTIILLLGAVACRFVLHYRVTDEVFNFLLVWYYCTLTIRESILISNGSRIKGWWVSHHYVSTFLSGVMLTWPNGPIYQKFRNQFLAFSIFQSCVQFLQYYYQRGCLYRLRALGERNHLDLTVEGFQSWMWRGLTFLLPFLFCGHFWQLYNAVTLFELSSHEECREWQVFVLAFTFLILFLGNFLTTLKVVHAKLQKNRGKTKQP
UniProt Q9BXS4: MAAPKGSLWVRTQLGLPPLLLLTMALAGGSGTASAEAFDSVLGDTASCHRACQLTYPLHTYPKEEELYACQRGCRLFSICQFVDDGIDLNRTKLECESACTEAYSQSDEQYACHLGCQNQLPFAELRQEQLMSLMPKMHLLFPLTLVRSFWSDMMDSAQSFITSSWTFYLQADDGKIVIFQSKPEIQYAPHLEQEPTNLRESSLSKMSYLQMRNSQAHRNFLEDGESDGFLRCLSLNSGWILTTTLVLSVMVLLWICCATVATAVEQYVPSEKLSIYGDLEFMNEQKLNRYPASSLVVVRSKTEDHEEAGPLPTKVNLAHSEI
UniProt Q9BZW5, whole entry, looked up: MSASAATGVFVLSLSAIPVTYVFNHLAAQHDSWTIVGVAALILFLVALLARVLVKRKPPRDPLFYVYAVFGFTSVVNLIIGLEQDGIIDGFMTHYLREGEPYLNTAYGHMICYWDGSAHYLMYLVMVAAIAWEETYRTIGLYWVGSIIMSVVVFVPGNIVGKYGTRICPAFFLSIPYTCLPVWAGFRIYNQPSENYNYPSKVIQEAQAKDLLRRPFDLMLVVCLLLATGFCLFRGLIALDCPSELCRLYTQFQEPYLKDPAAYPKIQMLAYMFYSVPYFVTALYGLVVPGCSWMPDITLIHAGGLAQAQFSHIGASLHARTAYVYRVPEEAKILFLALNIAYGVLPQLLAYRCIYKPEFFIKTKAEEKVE
UniProt Q9Y490: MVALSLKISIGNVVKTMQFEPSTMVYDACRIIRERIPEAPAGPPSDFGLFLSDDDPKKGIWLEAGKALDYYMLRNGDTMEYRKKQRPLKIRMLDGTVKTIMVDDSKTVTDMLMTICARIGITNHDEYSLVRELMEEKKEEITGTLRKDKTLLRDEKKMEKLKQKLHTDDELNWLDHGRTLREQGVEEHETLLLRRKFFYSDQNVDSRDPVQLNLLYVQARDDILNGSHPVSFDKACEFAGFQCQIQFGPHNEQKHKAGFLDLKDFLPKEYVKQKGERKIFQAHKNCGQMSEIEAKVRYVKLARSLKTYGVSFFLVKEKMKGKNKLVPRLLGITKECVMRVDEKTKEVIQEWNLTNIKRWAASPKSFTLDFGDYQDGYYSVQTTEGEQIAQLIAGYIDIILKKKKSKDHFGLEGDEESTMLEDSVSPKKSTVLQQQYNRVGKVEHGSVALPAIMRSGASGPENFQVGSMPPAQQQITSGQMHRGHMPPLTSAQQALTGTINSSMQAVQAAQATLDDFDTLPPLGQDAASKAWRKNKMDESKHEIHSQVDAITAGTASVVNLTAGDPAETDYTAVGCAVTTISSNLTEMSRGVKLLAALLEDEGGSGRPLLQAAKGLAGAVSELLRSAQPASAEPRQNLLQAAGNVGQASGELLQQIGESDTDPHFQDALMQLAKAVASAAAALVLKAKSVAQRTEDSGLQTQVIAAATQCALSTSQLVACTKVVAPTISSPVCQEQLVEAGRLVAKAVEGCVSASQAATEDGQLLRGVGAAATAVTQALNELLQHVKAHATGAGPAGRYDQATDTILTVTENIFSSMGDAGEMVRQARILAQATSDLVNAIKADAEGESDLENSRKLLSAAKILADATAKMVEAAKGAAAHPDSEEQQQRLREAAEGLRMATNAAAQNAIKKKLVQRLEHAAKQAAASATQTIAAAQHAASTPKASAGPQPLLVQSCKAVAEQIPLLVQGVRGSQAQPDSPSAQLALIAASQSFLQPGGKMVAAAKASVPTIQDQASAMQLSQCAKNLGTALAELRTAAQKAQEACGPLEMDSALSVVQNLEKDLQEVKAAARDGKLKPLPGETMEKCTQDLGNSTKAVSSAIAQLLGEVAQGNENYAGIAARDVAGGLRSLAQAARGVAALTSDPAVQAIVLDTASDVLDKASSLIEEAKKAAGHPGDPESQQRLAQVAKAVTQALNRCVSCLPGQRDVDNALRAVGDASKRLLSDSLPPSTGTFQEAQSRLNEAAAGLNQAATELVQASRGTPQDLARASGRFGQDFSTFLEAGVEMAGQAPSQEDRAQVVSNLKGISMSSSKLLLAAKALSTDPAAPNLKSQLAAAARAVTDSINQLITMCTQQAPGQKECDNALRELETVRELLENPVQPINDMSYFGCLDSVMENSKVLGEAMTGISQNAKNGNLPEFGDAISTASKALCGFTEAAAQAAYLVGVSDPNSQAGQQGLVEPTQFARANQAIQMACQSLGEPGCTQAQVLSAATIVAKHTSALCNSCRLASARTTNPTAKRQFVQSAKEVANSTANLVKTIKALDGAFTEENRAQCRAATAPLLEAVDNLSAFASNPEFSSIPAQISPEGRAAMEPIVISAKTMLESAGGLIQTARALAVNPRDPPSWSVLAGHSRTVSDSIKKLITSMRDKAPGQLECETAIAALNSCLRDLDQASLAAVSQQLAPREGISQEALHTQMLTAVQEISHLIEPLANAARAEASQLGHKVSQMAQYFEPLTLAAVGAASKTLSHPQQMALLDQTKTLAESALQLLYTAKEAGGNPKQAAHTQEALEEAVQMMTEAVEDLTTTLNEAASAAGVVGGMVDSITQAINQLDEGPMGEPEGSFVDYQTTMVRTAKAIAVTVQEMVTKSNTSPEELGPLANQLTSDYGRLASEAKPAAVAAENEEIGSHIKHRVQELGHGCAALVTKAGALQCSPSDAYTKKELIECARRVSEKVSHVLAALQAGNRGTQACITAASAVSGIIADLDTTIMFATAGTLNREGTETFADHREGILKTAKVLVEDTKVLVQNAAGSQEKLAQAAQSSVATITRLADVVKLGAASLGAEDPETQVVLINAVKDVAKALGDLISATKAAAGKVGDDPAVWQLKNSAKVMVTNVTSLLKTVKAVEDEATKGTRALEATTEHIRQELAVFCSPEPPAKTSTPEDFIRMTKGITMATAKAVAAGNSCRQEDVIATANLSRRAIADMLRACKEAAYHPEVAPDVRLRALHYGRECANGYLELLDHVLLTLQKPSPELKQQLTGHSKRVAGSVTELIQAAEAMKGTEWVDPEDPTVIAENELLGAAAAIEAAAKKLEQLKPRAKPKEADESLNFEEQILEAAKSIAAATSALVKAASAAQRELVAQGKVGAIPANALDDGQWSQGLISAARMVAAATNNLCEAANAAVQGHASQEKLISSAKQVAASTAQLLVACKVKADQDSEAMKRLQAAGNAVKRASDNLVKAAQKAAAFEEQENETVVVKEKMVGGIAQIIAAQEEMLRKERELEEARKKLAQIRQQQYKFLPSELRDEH
UniProt Q4ZIN3: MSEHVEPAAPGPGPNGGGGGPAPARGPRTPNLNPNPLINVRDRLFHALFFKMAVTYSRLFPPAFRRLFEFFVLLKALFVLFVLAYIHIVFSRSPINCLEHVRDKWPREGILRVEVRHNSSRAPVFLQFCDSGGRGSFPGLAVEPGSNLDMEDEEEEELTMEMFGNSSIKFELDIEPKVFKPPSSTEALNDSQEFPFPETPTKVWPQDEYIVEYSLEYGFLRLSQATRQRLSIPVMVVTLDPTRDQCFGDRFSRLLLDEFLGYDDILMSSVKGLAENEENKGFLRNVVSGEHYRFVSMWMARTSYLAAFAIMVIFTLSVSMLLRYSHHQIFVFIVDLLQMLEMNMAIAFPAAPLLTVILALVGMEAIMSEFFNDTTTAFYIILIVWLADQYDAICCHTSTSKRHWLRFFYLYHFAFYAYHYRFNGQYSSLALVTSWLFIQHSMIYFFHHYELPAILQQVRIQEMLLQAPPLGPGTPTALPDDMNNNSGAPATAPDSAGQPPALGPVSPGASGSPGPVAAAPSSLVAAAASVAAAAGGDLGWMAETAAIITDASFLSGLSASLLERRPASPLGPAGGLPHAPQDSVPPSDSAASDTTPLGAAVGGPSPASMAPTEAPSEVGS

What was measured:
Assay in all cases: log2 fold change, soluble protein after heating vs DMSO (PISA); higher = thermal stabilisation; K562 cells, 10 uM, 30 min; active = over 0.2 and 3.5 SD of the protein, either way, in both replicates (recomputed)
[1] = compound: COC1=CC=C(C=C1)CN2C=CC3=C2C=C(C=C3)C(=O)NO
Summary of the method: (§1)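 Quantification of soluble protein used TMTpro 16plex LC-MS/MS, with channel sums equalised. Samples were the supernatant after 21,000xg for 90 min of pooled aliquots from K562 cells (2×10^6 cells/mL) treated with 10 μM compound for 30 min, heated for 3 min over 48°C-58°C, and extracted in PBS with 0.5% NP-40 at 4°C. Values, from duplicates, describe thermal stability against control samples on a log2 fold-change scale.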

filanesib = compound: CON(C)C(=O)N1N=C(c2cc(F)ccc2F)S[C@@]1(CCCN)c1ccccc1 [filanesib]
Summary of the method: as §1

zotarolimus = compound: CO[C@H]1C[C@@H]2CC[C@@H](C)[C@@](O)(O2)C(=O)C(=O)N2CCCC[C@H]2C(=O)O[C@H]([C@H](C)C[C@@H]2CC[C@H](n3cnnn3)[C@H](OC)C2)CC(=O)[C@H](C)/C=C(\C)[C@@H](O)[C@@H](OC)C(=O)[C@H](C)C[C@H](C)/C=C/C=C/C=C/1C [zotarolimus]
Summary of the method: as §1

idasanutlin = compound: COc1cc(C(=O)O)ccc1NC(=O)[C@@H]1N[C@@H](CC(C)(C)C)[C@](C#N)(c2ccc(Cl)cc2F)[C@H]1c1cccc(Cl)c1F [idasanutlin]
Summary of the method: as §1

alisertib = compound: COc1cc(Nc2ncc3c(n2)-c2ccc(Cl)cc2C(c2c(F)cccc2OC)=NC3)ccc1C(=O)O [alisertib]
Summary of the method: as §1

[2] = compound: COc1cc2nc(-c3cc(F)ccc3O)nc(N[C@@H]3CNC[C@H]3C(C)(C)O)c2cc1OC
Summary of the method: as §1

gefitinib = compound: COc1cc2ncnc(Nc3ccc(F)c(Cl)c3)c2cc1OCCCN1CCOCC1 [gefitinib]
Summary of the method: as §1

[3] = compound: COc1cccc2cc(-c3nc([C@H]4CC[C@H](C(=O)O)CC4)n4ncnc(N)c34)[nH]c12
Summary of the method: as §1

lapatinib = compound: CS(=O)(=O)CCNCc1ccc(-c2ccc3ncnc(Nc4ccc(OCc5cccc(F)c5)c(Cl)c4)c3c2)o1 [lapatinib]
Summary of the method: as §1

pictilisib = compound: CS(=O)(=O)N1CCN(Cc2cc3nc(-c4cccc5[nH]ncc45)nc(N4CCOCC4)c3s2)CC1 [pictilisib]
Summary of the method: as §1

| Target | log2 fold change [1] | log2 fold change (filanesib) | log2 fold change (zotarolimus) | log2 fold change (idasanutlin) | log2 fold change (alisertib) | log2 fold change [2] | log2 fold change (gefitinib) | log2 fold change [3] | log2 fold change (lapatinib) | log2 fold change (pictilisib) |
| --- | --- | --- | --- | --- | --- | --- | --- | --- | --- | --- |
| TMEM9 (UniProt Q9P0T7) | inactive: -0.085 | inactive: -0.078 | inactive: 0.081 | inactive: 0.006 | inactive: -0.081 | inactive: -0.178 | inactive: -0.007 | inactive: 0.052 | inactive: 0.04 | inactive: 0.036 |
| TMEM209 (UniProt Q96SK2) | inactive: -0.012 | inactive: 0.002 | inactive: 0.004 | inactive: -0.031 | inactive: -0.032 | inactive: 0 | inactive: -0.01 | inactive: 0.009 | inactive: -0.105 | inactive: -0.005 |
| TMEM65 (UniProt Q6PI78) | inactive: -0.083 | inactive: -0.246 | inactive: -0.043 | inactive: -0.012 | inactive: -0.142 | inactive: -0.085 | inactive: -0.01 | inactive: -0.079 | inactive: -0.015 | inactive: 0.02 |
| TMF1 (UniProt P82094) | inactive: -0.036 | inactive: 0.032 | inactive: -0.014 | inactive: 0.021 | inactive: 0.007 | inactive: -0.007 | inactive: -0.01 | inactive: 0.011 | inactive: 0.011 | inactive: 0.027 |
| TLE4 isoform 3 (UniProt Q04727) | inactive: 0.029 | inactive: 0.004 | inactive: -0.015 | inactive: -0.05 | inactive: -0.04 | inactive: 0.001 | inactive: 0.017 | inactive: 0.05 | inactive: -0.024 | inactive: 0.043 |
| TMEM248 (UniProt Q9NWD8) | inactive: -0.026 | inactive: 0.023 | inactive: 0.025 | inactive: -0.092 | inactive: -0.015 | inactive: 0.088 | inactive: -0.023 | inactive: 0.155 | inactive: 0.043 | inactive: 0.084 |
| TMPO isoform 2 (UniProt P42167) | inactive: -0.155 | inactive: -0.51 | inactive: -0.045 | inactive: 0.038 | inactive: 0 | inactive: -0.001 | inactive: 0.06 | inactive: 0.005 | inactive: -0.342 | inactive: 0.148 |
| TMEM141 (UniProt Q96I45) | inactive: -0.092 | inactive: 0.035 | inactive: -0.074 | inactive: 0.06 | inactive: 0.092 | inactive: -0.01 | inactive: 0.117 | inactive: 0.112 | inactive: -0.028 | inactive: -0.129 |
| TMEM168 (UniProt Q9H0V1) | inactive: -0.026 | inactive: -0.009 | inactive: -0.03 | inactive: -0.084 | inactive: 0.009 | inactive: 0.028 | inactive: 0.008 | inactive: 0.074 | inactive: -0.042 | inactive: -0.009 |
| TMEM189 (UniProt A5PLL7) | inactive: 0.069 | inactive: -0.067 | inactive: 0.011 | inactive: -0.05 | inactive: 0.022 | inactive: -0.015 | inactive: -0.042 | inactive: 0.035 | inactive: 0.053 | inactive: -0.058 |
| TMA16 (UniProt Q96EY4) | inactive: -0.156 | inactive: 0.185 | inactive: 0.044 | inactive: 0.186 | inactive: -0.024 | inactive: -0.07 | inactive: 0.045 | inactive: -0.095 | inactive: 0.087 | inactive: -0.104 |
| TMEM192 (UniProt Q8IY95) | inactive: -0.036 | inactive: -0.162 | inactive: -0.047 | inactive: 0.037 | inactive: -0.048 | inactive: -0.009 | inactive: -0.047 | inactive: 0.099 | inactive: -0.02 | inactive: 0.038 |
| TMOD2 (UniProt Q9NZR1) | inactive: 0.024 | inactive: 0.015 | inactive: 0.03 | inactive: -0.068 | inactive: -0.127 | inactive: -0.311 | inactive: 0.035 | inactive: 0.093 | inactive: 0.036 | inactive: 0.06 |
| TMEM214 (UniProt Q6NUQ4) | inactive: -0.003 | inactive: 0.185 | inactive: -0.013 | inactive: -0.045 | inactive: -0.041 | active: 0.282 | inactive: -0.012 | inactive: -0.111 | inactive: 0.046 | inactive: -0.055 |
| TMOD1 (UniProt P28289) | inactive: 0.003 | inactive: 0.028 | inactive: 0.041 | inactive: 0.117 | inactive: 0.002 | inactive: -0.032 | inactive: -0.007 | inactive: -0.103 | inactive: 0.083 | inactive: -0.062 |
| TMUB2 (UniProt Q71RG4) | inactive: 0.05 | inactive: -0.01 | inactive: -0.032 | inactive: 0.067 | inactive: 0.151 | inactive: -0.039 | inactive: 0.052 | inactive: 0.122 | inactive: 0.013 | inactive: -0.042 |
| TMEM245 (UniProt Q9H330) | inactive: -0.002 | inactive: -0.059 | inactive: -0.002 | inactive: -0.072 | inactive: -0.153 | inactive: 0 | inactive: 0.024 | inactive: 0.066 | inactive: 0.03 | inactive: 0.06 |
| TMEM87A (UniProt Q8NBN3) | inactive: 0.005 | inactive: 0.014 | inactive: -0.043 | inactive: -0.022 | inactive: -0.02 | inactive: 0.024 | inactive: 0.079 | inactive: 0.049 | inactive: 0.03 | inactive: 0.095 |
| TMEM167B (UniProt Q9NRX6) | inactive: -0.084 | inactive: -0.08 | – | – | inactive: 0.082 | inactive: -0.023 | inactive: 0.117 | inactive: 0.087 | inactive: -0.011 | inactive: 0.044 |
| TMEM205 (UniProt Q6UW68) | inactive: -0.008 | inactive: 0.251 | inactive: -0.002 | – | inactive: -0.027 | inactive: 0.085 | inactive: 0.04 | inactive: 0.069 | inactive: -0.111 | inactive: -0.168 |
| TMEM120B (UniProt A0PK00) | inactive: 0.096 | – | inactive: -0.011 | inactive: -0.122 | inactive: 0.131 | – | inactive: -0.044 | inactive: -0.451 | – | inactive: -0.306 |
| TMEM59 (UniProt Q9BXS4) | inactive: 0.437 | – | inactive: 0.051 | inactive: -0.023 | inactive: -0.153 | inactive: 0.068 | inactive: -0.104 | inactive: -0.161 | inactive: 0.051 | inactive: 0.14 |
| TM6SF1 (UniProt Q9BZW5) | inactive: 0.077 | inactive: -0.113 | inactive: -0.362 | inactive: -0.19 | inactive: 0.073 | inactive: 0.05 | inactive: 0.071 | inactive: 0.03 | inactive: 0.047 | inactive: -0.081 |
| TMOD3 (UniProt Q9NYL9) | inactive: -0.006 | inactive: -0.019 | inactive: 0.061 | inactive: -0.003 | inactive: -0.008 | inactive: 0.012 | inactive: 0.03 | inactive: -0.034 | inactive: 0.037 | inactive: -0.032 |
| TLN1 (UniProt Q9Y490) | inactive: 0.109 | inactive: -0.013 | inactive: 0.026 | inactive: -0.07 | inactive: -0.06 | inactive: 0.031 | inactive: 0.014 | inactive: -0.049 | inactive: -0.011 | inactive: 0.002 |
| TMEM259 (UniProt Q4ZIN3) | inactive: -0.016 | inactive: -0.002 | inactive: -0.043 | inactive: -0.006 | inactive: 0.494 | inactive: -0.021 | inactive: 0.02 | inactive: -0.013 | inactive: -0.005 | inactive: 0.004 |

Whole records from above. Values in the order: log2 fold change [1]	log2 fold change (filanesib)	log2 fold change (zotarolimus)	log2 fold change (idasanutlin)	log2 fold change (alisertib)	log2 fold change [2]	log2 fold change (gefitinib)	log2 fold change [3]	log2 fold change (lapatinib)	log2 fold change (pictilisib)
TMEM245 (UniProt Q9H330) reads inactive: -0.002	inactive: -0.059	inactive: -0.002	inactive: -0.072	inactive: -0.153	inactive: 0	inactive: 0.024	inactive: 0.066	inactive: 0.03	inactive: 0.06
TMEM87A (UniProt Q8NBN3) reads inactive: 0.005	inactive: 0.014	inactive: -0.043	inactive: -0.022	inactive: -0.02	inactive: 0.024	inactive: 0.079	inactive: 0.049	inactive: 0.03	inactive: 0.095
